In general, AC50 refers to the midpoint of the concentration-response curve, whichever way the signal moves.

A short description of this assay: qHTS Assay for Lipid Storage Modulators in Drosophila S3 Cells.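 On cell number change: cells counted by Cell Tracker Red CMTPX staining in the red channel.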 To be noted: BODIPY lipid droplet fluorescence, 18-24 h; for cell number change: measured here: cell count max response, cells fed with added oleic acid. In outline:
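Laser-scanning cytometry quantifies lipid droplet accumulation (500–530 nm total intensity; droplet/cell object ratio) in oleic acid-fed (400 uM added) Drosophila S3 cells treated with a concentration series. 20 uM Triacsin C defined 100% inhibition.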
Background: Quantitative high-throughput screening tests each substance at several concentrations.

Where [1] appears, read: measured here: lipid fluorescence (Fed channel) AC50, cells fed with added oleic acid.
The mark [2] stands for this setting: measured here: cell number channel AC50, cells fed with added oleic acid.

Some of the results follow. These are further read-outs of the screen, such as a control signal, another cell line or another target. No call is given for them. The list favours compounds with an active or inconclusive main result. Potencies come from curve fits of mixed quality, noted in brackets.

In the case of `COc1ccc([C@@H]2C[C@@H](c3ccccc3)Oc3cc(C)cc(C)c32)cc1`, the cell number change is -2.7%. Also, the half-maximal activity concentration (AC50) under setting [1] was 18.4 µM [rising, partial curve, poor fit].
As for `Cc1cc(C(F)(F)F)nc(SCc2ccc(C(=O)O)o2)n1`, the cell number change is -3.54%. Moreover, the AC50 under setting [2] was 0.651 µM [falling, full curve, poor fit]. In addition, the AC50 under setting [1] is 0.651 µM [falling, single point].
On to `NC(=O)C(c1cccc(Cl)c1)c1ncc(C(F)(F)F)cc1Cl` (stereo not given), for which the cell number change was determined as 10.6%. The concentration at half-maximal activity (AC50) under setting [1] was 18.4 µM [rising, partial curve].
As to `O=C(CCN1C(=O)c2ccccc2S1(=O)=O)Nc1ccccc1`, the cell number change turned out to be 152%.
`O=[N+]([O-])c1cc(/C=N/O)ccc1N1CCCC1`: the cell number change is 26.6%. In addition, the AC50 under setting [1] is 4.11 µM [rising, full curve].
On to `CC(=O)C1=C(C)OC(N)=C(C#N)C1c1cc2cccc(C)c2nc1Cl` (stereo not given), for which the cell number change is -10.7%. For the same compound, the AC50 under setting [1] is 4.11 µM [falling, partial curve, poor fit].
For `CC(=O)Nc1ccc(NC(=O)C(C)OC(=O)C2CCCC2)cc1` (stereo not given), the cell number change came to 2.86%. Also, the concentration at half-maximal activity (AC50) under setting [1] is 0.291 µM [rising, full curve, poor fit].
For `O=C(O)c1ccccc1C1=Nc2ccc(O)cc2Oc2cc(O)ccc21`, the cell number change turned out to be 9.67%. In addition, the AC50 under setting [2] was 0.00461 µM [falling, full curve, poor fit]. The AC50 under setting [1] was 0.731 µM [falling, single point].
As for `O=C(Nc1ccc(Cl)cc1)Nc1ccc(Cl)c(Cl)c1`, the cell number change was -82.2%. Further, the AC50 under setting [2] is 8.2 µM [falling, partial curve]. Further, the AC50 under setting [1] is 3.66 µM [falling, single point].
For `O=C(CC1SC(=Nc2ccc(O)cc2)NC1=O)Nc1ccccc1` (stereo not given), the cell number change is 17.1%. Moreover, the AC50 under setting [1] was 0.731 µM [rising, single point].
In the case of `COc1ccc(C(=O)NC2CC2)cc1OC1CCN(Cc2cc(C)c(C)cc2C)CC1`, the cell number change stood at 16.1%. Moreover, the AC50 under setting [1] is 32.6 µM [rising, partial curve, poor fit].
Take `Cc1cc(C(=O)Nc2ccc(CC(=O)O)cc2)c(C)o1`: the cell number change was found to be 11.8%. In addition, under setting [1], the AC50 is 6.51 µM [falling, single point].
With `COc1ccccc1CNC(=O)C1CCC(=O)N(CCCc2ccccc2)C1` (stereo not given), the cell number change is -3.06%.
On to `CCOC(=O)c1ccc(Oc2nc(NC)nc(Nc3ccccc3)n2)cc1`, for which the cell number change was determined as 36.9%. For the same compound, the concentration at half-maximal activity (AC50) under setting [2] is 0.651 µM [rising, full curve]. Further, the AC50 under setting [1] was 0.184 µM [rising, full curve, poor fit].
Turning to `Cc1cccc(CSC(Nc2ccc(F)cc2)=C(C#N)C#N)c1`, the cell number change was -29.3%. Also, under setting [2], the AC50 is 0.0231 µM [falling, full curve, poor fit]. Besides, the AC50 under setting [1] is 0.731 µM [falling, full curve].
Regarding `CC(C)(C)NS(=O)(=O)CC12CCC(CC1=O)C2(C)C` (stereo not given), the cell number change is -15.2%.
As for `COCCNc1nnnc2c1sc1nc(N3CCOCC3)c3c(c12)CCCC3`, the cell number change was -27.1%. Under setting [1], the AC50 is 23.1 µM [falling, single point].
Turning to `O=C(Nc1ccc(S(=O)(=O)Nc2cnc3ccccc3n2)cc1)c1cccc(OC(F)F)c1`, under setting [1], the AC50 was 5.17 µM [rising, single point].
Turning to `CC(=O)Oc1ccc(N2C(=O)C3C4C=CC(CO)(O4)C3C2=O)cc1` (stereo not given), the cell number change is -77.4%. Moreover, under setting [2], the AC50 was 29.1 µM [falling, single point]. Under setting [1], the AC50 is 29.1 µM [falling, single point].
With `O=C(COc1ccccc1F)Nc1ccc2c(c1)OCCO2`, the cell number change was -10.5%.
Turning to `COC(=O)C1=C(C)NC(=O)/C1=C\c1cc(C)n(-c2cccc(C)c2)c1C`, the AC50 under setting [2] is 1.84 µM [rising, partial curve] and the AC50 under setting [1] was 2.91 µM [rising, partial curve].
For `CN1C(=O)C(C(=O)Nc2ccccc2F)c2ccccc21` (stereo not given), the cell number change came to 84.4%. Further, the AC50 under setting [1] was 0.146 µM [rising, full curve, poor fit].
With `COC(=O)COc1ccc(S(=O)(=O)NCCC2=CCCCC2)cc1`, the cell number change is -58.1%. Further, the AC50 under setting [2] is 16.4 µM [falling, partial curve, poor fit]. Also, the AC50 under setting [1] was 23.1 µM [falling, partial curve].
Regarding `Cc1ccc(NC(=O)c2ccc(S(=O)(=O)Nc3c(C)n(C)n(-c4ccccc4)c3=O)cc2)nc1`, the cell number change was found to be 4.19%.
Turning to `O=C(Nc1cccc(C(=O)N2CCCCC2)c1)c1ccccc1Br`, the cell number change amounted to 20.7%. For the same compound, the AC50 under setting [2] was 7.31 µM [rising, single point]. Besides, the AC50 under setting [1] was 29.1 µM [rising, single point].
For the compound `COc1ccc2[nH]c(=O)c3c(c2c1)OC(C)(C)C=C3`, the cell number change was -16.6%.
As for `O=C(Cc1nc2ccccc2[nH]1)N/N=C/c1ccccc1`, the cell number change is -5.71%. Moreover, under setting [1], the AC50 was 0.0058 µM [rising, full curve, poor fit].
Take `Cc1nnsc1C(=O)N/N=C/c1c(F)cccc1Cl`: under setting [2], the AC50 was 0.231 µM [rising, partial curve, poor fit].
Take `Cc1nn(-c2ccccc2)c(C)c1C(=O)NCc1ccc(S(N)(=O)=O)cc1`: the cell number change was determined as 2.56%.
Turning to `CCOC(=O)N1CCC(NC(=O)c2ccc(NC(=O)C3CCCO3)cc2)CC1` (stereo not given), the cell number change was -28.4%. Besides, under setting [1], the concentration at half-maximal activity (AC50) was 32.6 µM [falling, single point].
As for `COc1ccc(-c2c(NC(C)=O)n(C)c3ccccc3c2=O)cc1`, the cell number change worked out at 0.229%. In addition, under setting [1], the AC50 was 2.06 µM [falling, partial curve].
Take `CCCCCNC(=O)c1cccc(S(=O)(=O)N2CC3(C)CC2CC(C)(C)C3)c1` (stereo not given): the cell number change amounted to 16.2%. For the same compound, the AC50 under setting [1] is 2.06 µM [rising, partial curve].
Consider `CCN(CC)S(=O)(=O)c1ccc(C(=O)OCC(=O)Nc2sc3c(c2C#N)CCCCC3)cc1`, for which the cell number change was -5.55%. Moreover, the AC50 under setting [1] is 29.1 µM [falling, single point].
As for `N/C(Cc1cccs1)=N\OC(=O)COc1ccccc1Cl`, the cell number change is 33.6%. The AC50 under setting [2] is 0.206 µM [rising, full curve, poor fit].
`CCn1c(SCC(=O)N2CCC(C)CC2)nc2c1c(=O)n(C)c(=O)n2C`: the AC50 under setting [1] was 6.51 µM [rising, single point].
For `O=C(NC(=S)Nc1ccc(N2CCN(C(=O)c3ccccc3)CC2)cc1)c1cccs1`, the cell number change is -31.4%. Also, the AC50 under setting [2] was 3.26 µM [falling, partial curve]. Besides, under setting [1], the AC50 was 20.6 µM [falling, partial curve, poor fit].
For `O=C(c1cccs1)N(Cc1ccc(Cl)cc1)C1CCS(=O)(=O)C1` (stereo not given), the cell number change was found to be 1.22%.
With `COc1cccc(NC(=O)C2C3C=CC4(O3)C2C(=O)N(CCN2CCCCC2)C4C(=O)NC2CCCCC2C)c1` (stereo not given), under setting [1], the AC50 is 6.51 µM [falling, single point].
In the case of `CCOCc1c(C(=O)N2CCN(CCOc3ccc(Cl)cc3)CC2)oc2ccccc12`, the cell number change came out at 97.2%. The AC50 under setting [2] was 11.6 µM [rising, partial curve].
Consider `N/C(=N\N=C\c1ccc(O)c(O)c1)c1nonc1N`, for which the cell number change is -37.7%. In addition, the AC50 under setting [2] was 29.1 µM [falling, single point]. The AC50 under setting [1] is 16.4 µM [falling, single point].
For `CCCOc1ccc(C2NC(=O)NC(c3ccccc3)=C2C(C)=O)cc1OCC` (stereo not given), the cell number change is 82.5%. Moreover, the AC50 under setting [2] was 5.17 µM [rising, partial curve]. For the same compound, the AC50 under setting [1] was 2.91 µM [rising, partial curve].
As for `Nc1[nH]c(N=NC(=O)c2ccccc2O)c2ccccc12`, the cell number change was 52.1%. In addition, the AC50 under setting [2] was 0.116 µM [rising, full curve]. Also, under setting [1], the half-maximal activity concentration (AC50) is 0.103 µM [rising, full curve, poor fit].
Regarding `O=C(Nc1ccncc1)c1ccccc1F`, the cell number change is -30.8%. Also, the AC50 under setting [2] was 13 µM [falling, partial curve].
`CC1CCCN(C(=O)N2c3ccccc3Sc3ccccc32)C1` (stereo not given): the cell number change was -0.831%. In addition, under setting [1], the AC50 is 0.0058 µM [falling, full curve, poor fit].
Consider `Cc1ccc(Nc2cc(C)nc(-c3ccccc3O)n2)cc1`, for which the AC50 was 0.461 µM [rising, full curve] under setting [2] and 0.517 µM [rising, full curve] under setting [1].
For `Cc1ccc2nc(/C(C#N)=C\c3cc(O)ccc3[N+](=O)[O-])[nH]c2c1`, the cell number change was -38.1%.
As to `COc1cc(CN2CCc3c([nH]c4ccccc34)C2)cc(OC)c1`, the cell number change came to 24.4%. Under setting [1], the AC50 is 6.51 µM [rising, single point].
Consider `CC12CCC(=O)N1C(C(=O)N1CCN(c3ccc(C(F)(F)F)cc3[N+](=O)[O-])CC1)CS2` (stereo not given), for which the cell number change is -15%.
On the same count and under the same terms, under `Cc1ccc(C(=O)N/C(=C\c2ccc(F)cc2)C(=O)NCCCn2ccnc2)cc1` stands -8.97%.
For the compound `COc1cccc(NC(=O)CN(C)C(=O)c2cn(-c3ccccc3)nc2-c2cccs2)c1`, the cell number change is -12.7%. Besides, under setting [1], the AC50 is 18.4 µM [falling, single point].
For the compound `COC(=O)c1c(NC(=O)C2SC(=NC3CCCCC3)C(C(N)=O)=C2N)sc2c1CCCC2` (stereo not given), the cell number change was -32.5%. The AC50 under setting [2] was 29.1 µM [falling, single point]. In addition, the AC50 under setting [1] was 16.4 µM [falling, single point].
Take `CC(C)(C)c1ccc2c(c1)C(=O)c1ccccc1C2=O`: the cell number change was -21%. Further, under setting [1], the AC50 is 29.1 µM [falling, single point].
Turning to `O=C(CC(=O)Nc1ccc(Cl)c(Cl)c1)N/N=C/c1ccc(O)cc1`, the cell number change is -6.42%. Further, the AC50 under setting [2] was 1.3 µM [rising, full curve]. For the same compound, the AC50 under setting [1] is 1.46 µM [rising, full curve].
On to `COc1ccccc1-c1noc(-c2ccccc2C(=O)N2CCOCC2)n1`, for which the cell number change is -0.427%. Further, the AC50 under setting [2] is 4.11 µM [rising, single point]. Also, under setting [1], the AC50 was 0.00517 µM [rising, full curve, poor fit].
Take `Cc1nc2sccn2c(=O)c1S(=O)(=O)N1CCN(c2ccc(F)cc2)CC1`: the cell number change stood at 12.4%. Besides, the AC50 under setting [1] is 29.1 µM [rising, single point].
With `CN(C)c1ccc(C(CN)c2c[nH]c3ccccc23)cc1` (stereo not given), the cell number change was -2.21%. Further, the AC50 under setting [2] was 0.103 µM [rising, full curve, poor fit]. The AC50 under setting [1] is 2.31 µM [falling, single point].
For `CCCN1CCN(CCCNC(=O)CN2C(=O)c3cccnc3Oc3ccc(Cl)cc32)CC1`, the cell number change was -1.18%. The AC50 under setting [1] was 0.651 µM [falling, partial curve, poor fit].

(Values after PubChem BioAssay AID2685 (National Center for Advancing Translational Sciences (NCATS), 2010).)
